The results in this text go back to patent US20250152722A1 (SHANGHAI SHENGDI PHARMACEUTICAL, published 2025).

The term EC50 denotes the concentration needed to bring the measured effect to its halfway point. A low value points to greater potency. As usually defined, the Kd is the equilibrium constant for the complex coming apart. By koff is commonly meant the rate constant with which the complex falls apart. A low value points to a long-lived complex. Broadly, the kon is the rate constant with which the complex forms.

Assay [1] deals with T1, human IL-4Rα expressed on cells (human, UniProt P24394 26-825).
T1 construct: whole, on cells; also called IL-4Rα on TF-1 cells; cells expressing human IL-4Rα
T1 sequence (looked up): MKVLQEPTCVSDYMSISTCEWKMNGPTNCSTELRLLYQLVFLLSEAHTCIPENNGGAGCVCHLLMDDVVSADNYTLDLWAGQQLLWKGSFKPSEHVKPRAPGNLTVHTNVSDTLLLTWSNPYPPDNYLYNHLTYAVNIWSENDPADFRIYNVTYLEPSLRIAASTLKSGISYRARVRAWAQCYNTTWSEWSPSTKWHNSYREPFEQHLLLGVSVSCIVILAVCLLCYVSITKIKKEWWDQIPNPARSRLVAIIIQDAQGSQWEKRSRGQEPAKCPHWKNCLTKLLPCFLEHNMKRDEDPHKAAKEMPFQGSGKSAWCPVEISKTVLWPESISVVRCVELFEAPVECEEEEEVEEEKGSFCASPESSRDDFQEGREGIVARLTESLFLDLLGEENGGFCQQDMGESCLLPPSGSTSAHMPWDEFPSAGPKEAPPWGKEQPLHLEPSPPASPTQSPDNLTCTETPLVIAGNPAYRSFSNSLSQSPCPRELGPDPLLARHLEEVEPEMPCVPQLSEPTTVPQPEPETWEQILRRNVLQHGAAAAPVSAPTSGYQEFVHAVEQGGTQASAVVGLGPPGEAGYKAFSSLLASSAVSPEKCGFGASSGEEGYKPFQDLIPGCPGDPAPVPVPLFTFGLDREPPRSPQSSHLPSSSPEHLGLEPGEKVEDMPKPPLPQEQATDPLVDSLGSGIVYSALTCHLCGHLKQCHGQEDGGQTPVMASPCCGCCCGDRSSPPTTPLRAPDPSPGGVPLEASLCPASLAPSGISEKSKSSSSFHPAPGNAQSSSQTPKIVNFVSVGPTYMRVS
In words: flow cytometry on TF-1 cells, anti-His-FITC secondary antibody. The procedure:
TF-1 and Karpas299 cells in the logarithmic growth phase were harvested and counted, and the cell density was adjusted. The cells were inoculated onto a 96-well round-bottom plate at 1×10⁵ cells/well. […] After the antibodies were washed off with FACS buffer (PBS containing 2% FBS), a fluorescently labeled secondary antibody was added for staining. […] The cells were incubated with the secondary antibodies at 4° C. for 30 min, then washed with FACS buffer twice, and assayed on a flow cytometer (BD, FACS Celesta), and the results were analyzed using FlowJo (FlowJo, LLC) software.
(A flow cytometer gives signals particle by particle.)

Assay [2] has as its target T2, Biotin-labeled human IL-4Rα protein (SinoBiological, CAT #10402-H08H-B) (human, UniProt P24394 26-232, Biotin-labeled (sites not given)).
T2 construct: Bought reagent, captured on an SA sensor chip; also called hIL-4Rα; human IL-4Rα antigen protein
T2 sequence (looked up): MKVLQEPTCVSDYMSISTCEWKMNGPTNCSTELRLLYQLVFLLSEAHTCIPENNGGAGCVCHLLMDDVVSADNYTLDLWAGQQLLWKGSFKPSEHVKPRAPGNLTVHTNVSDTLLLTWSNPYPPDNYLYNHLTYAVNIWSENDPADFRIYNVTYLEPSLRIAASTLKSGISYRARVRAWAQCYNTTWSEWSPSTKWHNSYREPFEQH
In words: SPR, Biacore 8K, biotinylated hIL-4Rα captured on SA chip, test protein as analyte. The protocol: HBS-EP+buffer solution (10 mM HEPES, 150 mM NaCl, 3 mM EDTA, 0.05% surfactant P20) was used as the mobile phase. Each test protein was serially diluted 2-fold with HBS-EP+buffer solution and then injected as an analyte. The flow rate was set to 30 μL/min. […] Analysis was performed using Biacore 8K evaluation software (Cytiva), and data on the affinities of the test proteins were obtained.

B1: AZD1402-TAG (designed binder)
chain: ASDEEIQDVSGTWYLKAMTVDSRCPRAVYNSVTPMTLTTLEGGNLEAKFTAQRKGRWQKYKLVLEKTDEPGKYTASGGRHVAYIIRSHVKDHYIFHSEGLCPGQPVPGVWLVGRDPKNNLEALEDFEKAAGARGLSTESILIPRQSETSSPGSDHHHHHH
The molecule B1 showed a 50% effective concentration (EC50) in assay [1] of 0.0124 nM. In assay [2], the Kd stood at 0.0213 nM, the koff turned out to be 0.000102 s⁻¹ and the kon was found to be 4.77e+06 M⁻¹ s⁻¹.
